# Measurements reported in PubChem BioAssay AID493246 (Drosophila RNAi Screening Center, 2011)
# Aim: 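Identify essential fly genes by loss of cell viability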 (primary screen)
# Cell system: Drosophila Kc and S2R+ cells
# Reagent: long dsRNA against Drosophila genes
# Detection: 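Cell number per well after knock-down, printed as raw plate values; calls were based on per-plate z-scores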
# Reading the numbers: Kc cell number and S2R+ cell number: higher = more cells remaining
# Hit rule: 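Counted as a hit if cell number falls by a z-score of at least 3 within its plate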
# In all, the deposit lists about 21,000 reagents; shown is a random part of those that have a named target and a result. Of all reagents, 429 (2%) were called active. 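Values are raw and not normalised between plates; calls rest on per-plate z-scores that were not deposited.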 Entries without a mark were called inactive. Not stated in the record: the amount of reagent, the time to read-out.
predicted target,DRSC id,"Kc cell number, rep 1","Kc cell number, rep 2","S2R+ cell number, rep 1","S2R+ cell number, rep 2"
chk,DRSC04994,1.25e6,1.35e6,1.14e6,1.14e6
CG10068,DRSC12508,1.63e6,1.63e6,1.31e6,1.41e6
ND-B17,DRSC01981,1.38e6,1.43e6,1.16e6,1.32e6
Moca-cyp,DRSC15364,5.69e5,,8.92e5,
pnr,DRSC17027,1.55e6,1.60e6,1.11e6,1.21e6
Csgalnact,DRSC06228,1.52e6,1.56e6,1.31e6,1.35e6
CG7916,DRSC01901,1.49e6,1.56e6,1.24e6,1.33e6
SmydA-7,DRSC07340,1.37e6,1.40e6,1.24e6,1.25e6
Drl-2,DRSC05393,1.55e6,1.53e6,1.02e6,1.15e6
Drl-2,DRSC06155,1.55e6,1.65e6,1.38e6,1.42e6
Drl-2,DRSC06858,1.54e6,1.56e6,1.28e6,1.36e6
CG12134,DRSC06109,1.70e6,1.65e6,1.37e6,1.44e6
CG4714,DRSC06883,1.32e6,1.37e6,1.12e6,1.14e6
mei-P26,DRSC17735,1.28e5 (active),,3.53e5,
CG11537,DRSC08200,1.02e6,1.38e6,1.27e6,8.93e5
CG4409,DRSC06869,1.53e6,1.56e6,1.12e6,1.27e6
Vps24,DRSC12332,1.62e6,1.76e6,1.11e6,1.30e6
Grl43a,DRSC06383,1.69e6,1.78e6,1.40e6,1.57e6
sw,DRSC20388,1.19e6,1.38e6,1.04e6,1.14e6
CG9072,DRSC20147,1.53e6,1.51e6,1.12e6,1.24e6
CG5172,DRSC19936,1.93e6,1.94e6,1.14e6,1.33e6
CG6927,DRSC18407,4.47e5,,9.04e5,
Trim9,DRSC02242,1.60e6,1.68e6,1.39e6,1.62e6
CG42700,DRSC06292,5.77e5 (active),1.02e6,4.18e5,5.68e5
CG42700,DRSC06293,1.61e6,1.68e6,1.40e6,1.47e6
